# Source: PubChem BioAssay (Tox21)
# Inconclusive means that the source gave no clear call. Such entries were picked first, then a sample of the others. Where a call stands in place of a potency, no number is given. Potencies beside an inconclusive call are fits to weak or partial responses and may not hold up. The source made the active and inactive calls. Calls come from the whole dose curve.
# Experiment: p53 small molecule agonists, cell-based qHTS assay with rat liver microsomes: qHTS cell viability counter screen (AID 1963580); note: nearly all actives have a fitted effect of over 45% in size
# Settings: p53RE-bla HCT-116 + rat microsomes, ATP viability, 16 h; series mostly up to 66 µM
# Summary of the method: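 Viability is assessed in parallel with the p53 reporter read: HCT-116 p53RE-bla cells receive compounds plus rat microsomes and NADPH (0.5 mg/mL final apiece), incubate 16 h at 37 C, and then CellTiter-Glo luminescence is recorded.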
# Potency is the fitted concentration of half-maximal effect.
Structure (SMILES),Potency,"activity change, negative = cytotoxicity"
O=C(O)c1ccccc1[N+](=O)[O-],inactive,
CC(C)Cc1ccc(C(C)C(=O)O)cc1 (stereo not given),"inconclusive: 52100 nM [rising, partial curve, poor fit]",
CCCCNc1cc(C(=O)O)cc(S(N)(=O)=O)c1Oc1ccccc1,inactive,
COC(=O)c1ccc(C)cc1,"inconclusive: 18200 nM [rising, single point]",
CC(C)c1ccc(C(=O)N=C(N)N)cc1S(C)(=O)=O,inactive,
COc1cccc(CCc2ccccc2OCC(CN(C)C)OC(=O)CCC(=O)O)c1 (stereo not given),inactive,
O=C1OC(OC(=O)c2cccnc2Nc2cccc(C(F)(F)F)c2)c2ccccc21 (stereo not given),inactive,
C=C(C)C1CCC(C)CC1O (stereo not given),active: 1620 nM,
CCCC(C(=O)OCCN(CC)CC)(c1ccccc1)c1ccccc1,inactive,
O=Cc1ccccc1[N+](=O)[O-],"inconclusive: 1820 nM [cytotoxic, single point]",
CN(C)[C@@H]1C(=O)C(C(N)=O)=C(O)[C@@]2(O)C(=O)C3=C(O)c4c(O)ccc(Cl)c4[C@@H](O)[C@H]3C[C@@H]12,inactive,
COCCCN,"inconclusive: 3200 nM [cytotoxic, full curve, poor fit]",
CN(C)CCCSc1ccccc1NC(=O)/C=C/c1ccccc1,inactive,
O=C(O)c1cc(Cl)cc(Cl)c1,inactive,
C[Si](C)(C)C,"inconclusive: 8700 nM [cytotoxic, single point]",
CC1=C(C(=O)OC(C)C)C(c2cccc([N+](=O)[O-])c2)C(C(=O)OC2CN(C(c3ccccc3)c3ccccc3)C2)=C(N)N1 (stereo not given),inactive,
NCc1ccc(S(N)(=O)=O)cc1,inactive,
O=C(CCCCCCCCc1cccnc1)N1CCC(C=C(c2ccccc2)c2ccccc2)CC1,inactive,
CC(C)OC(=O)c1ccccc1C(=O)OC(C)C,inactive,
CC1=NN(c2ccc(C(=O)O)cc2)C(=O)C1,"inconclusive: 28900 nM [rising, partial curve, poor fit]",

# Part of the list above, set out differently:
Structure (SMILES)	Potency	activity change, negative = cytotoxicity
CC(C)c1ccc(C(=O)N=C(N)N)cc1S(C)(=O)=O	inactive	
COc1cccc(CCc2ccccc2OCC(CN(C)C)OC(=O)CCC(=O)O)c1 (stereo not given)	inactive	
O=C1OC(OC(=O)c2cccnc2Nc2cccc(C(F)(F)F)c2)c2ccccc21 (stereo not given)	inactive	

# The list goes on.

Structure (SMILES),Potency,"activity change, negative = cytotoxicity"
O=S(=O)(Cl)c1c(Cl)cccc1Cl,"inconclusive: 1.4 nM [cytotoxic, full curve, poor fit]",
CCCCN=C(N)N=C(N)N,inactive,
[O]=[Bi],"inconclusive: 99.5 nM [cytotoxic, single point]",
CC1=CC(O)CC(C)(C)C1 (stereo not given),"inconclusive: 51300 nM [rising, single point]",
COCCCN1CCC(NC(=O)c2cc(Cl)c(N)c3c2OCC3)CC1,inactive,
O=C(O)/C=C/c1ccc(Cn2ccnc2)cc1,inactive,
O=S(=O)(O)c1ccc2cc(O)ccc2c1,"inconclusive: 4070 nM [cytotoxic, full curve, poor fit]",
O=C(OC[C@H]1O[C@@H](OC(=O)c2cc(O)c(O)c(OC(=O)c3cc(O)c(O)c(O)c3)c2)[C@H](OC(=O)c2cc(O)c(O)c(OC(=O)c3cc(O)c(O)c(O)c3)c2)[C@@H](OC(=O)c2cc(O)c(O)c(OC(=O)c3cc(O)c(O)c(O)c3)c2)[C@@H]1OC(=O)c1cc(O)c(O)c(OC(=O)c2cc(O)c(O)c(O)c2)c1)c1cc(O)c(O)c(OC(=O)c2cc(O)c(O)c(O)c2)c1,,inactive: 7.08% [at 13.5 µM]
Cc1c(C)c([N+](=O)[O-])c(C(C)(C)C)c([N+](=O)[O-])c1C,inactive,
CC(C)OP(=O)(CP(=O)(OC(C)C)OC(C)C)OC(C)C,"inconclusive: 446 nM [cytotoxic, single point]",
C[C@H]1C[C@@H](O)CC(C)(C)C1,inactive,
COc1cc(OC)cc(OC)c1,"inconclusive: 2230 nM [cytotoxic, single point]",
O=CCc1ccccc1,"inconclusive: 18200 nM [rising, single point]",
OC[C@@H](O)[C@@H](O)CO,inactive,
OB(O)O,"inconclusive: 875 nM [cytotoxic, single point]",
CCCCCCCCCCCC(=O)Cl,"inconclusive: 1820 nM [cytotoxic, single point]",
CCCCNS(=O)(=O)c1ccc(C)cc1,inactive,
O=C1OCc2ccccc21,"inconclusive: 1820 nM [cytotoxic, partial curve, poor fit]",
ClC(Cl)(Br)Br,inactive,
CCCCCCCCCOC(=O)c1ccccc1C(=O)OCCCCCCCCC,inactive,
